In this assay the target is T1, mucin 15 (human (endogenous in OVCAR3)) (UniProt Q8N387).
T1 sequence: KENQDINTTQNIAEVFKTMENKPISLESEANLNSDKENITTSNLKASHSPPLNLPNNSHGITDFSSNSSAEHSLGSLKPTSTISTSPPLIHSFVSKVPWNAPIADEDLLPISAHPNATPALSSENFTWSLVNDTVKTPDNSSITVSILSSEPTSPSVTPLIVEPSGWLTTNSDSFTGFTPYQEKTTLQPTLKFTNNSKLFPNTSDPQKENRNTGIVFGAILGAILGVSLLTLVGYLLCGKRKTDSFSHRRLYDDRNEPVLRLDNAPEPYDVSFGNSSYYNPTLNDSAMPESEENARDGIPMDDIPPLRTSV
As to the kind of experiment: co-IP; OVCAR3 lysate (static adherent culture, 70% confluency) incubated overnight at 4°C with anti-MUC15 coupled to Pierce agarose resin (Pierce Co-Immunoprecipitation Kit); eluate analysed by SDS-PAGE and immunoblot. On the technique in general: In western blotting, separated proteins are transferred to a membrane and probed.

These are yes or no findings as the source states them, for the method shown. In cells and extracts the contact can be indirect. Some results given as binding are weak or reduced against the parent protein; the word gives no strength.

B1: PLCβ1 (enzyme, UniProt Q9NQ66 1-1216)
chain: MAGAQPGVHALQLKPVCVSDSLKKGTKFVKWDDDSTIVTPIILRTDPQGFFFYWTDQNKETELLDLSLVKDARCGRHAKAPKDPKLRELLDVGNIGRLEQRMITVVYGPDLVNISHLNLVAFQEEVAKEWTNEVFSLATNLLAQNMSRDAFLEKAYTKLKLQVTPEGRIPLKNIYRLFSADRKRVETALEACSLPSSRNDSIPQEDFTPEVYRVFLNNLCPRPEIDNIFSEFGAKSKPYLTVDQMMDFINLKQRDPRLNEILYPPLKQEQVQVLIEKYEPNNSLARKGQISVDGFMRYLSGEENGVVSPEKLDLNEDMSQPLSHYFINSSHNTYLTAGQLAGNSSVEMYRQVLLSGCRCVELDCWKGRTAEEEPVITHGFTMTTEISFKEVIEAIAECAFKTSPFPILLSFENHVDSPKQQAKMAEYCRLIFGDALLMEPLEKYPLESGVPLPSPMDLMYKILVKNKKKSHKSSEGSGKKKLSEQASNTYSDSSSMFEPSSPGAGEADTESDDDDDDDDCKKSSMDEGTAGSEAMATEEMSNLVNYIQPVKFESFEISKKRNKSFEMSSFVETKGLEQLTKSPVEFVEYNKMQLSRIYPKGTRVDSSNYMPQLFWNAGCQMVALNFQTMDLAMQINMGMYEYNGKSGYRLKPEFMRRPDKHFDPFTEGIVDGIVANTLSVKIISGQFLSDKKVGTYVEVDMFGLPVDTRRKAFKTKTSQGNAVNPVWEEEPIVFKKVVLPTLACLRIAVYEEGGKFIGHRILPVQAIRPGYHYICLRNERNQPLTLPAVFVYIEVKDYVPDTYADVIEALSNPIRYVNLMEQRAKQLAALTLEDEEEVKKEADPGETPSEAPSEARTTPAENGVNHTTTLTPKPPSQALHSQPAPGSVKAPAKTEDLIQSVLTEVEAQTIEELKQQKSFVKLQKKHYKEMKDLVKRHHKKTTDLIKEHTTKYNEIQNDYLRRRAALEKSAKKDSKKKSEPSSPDHGSSTIEQDLAALDAEMTQKLIDLKDKQQQQLLNLRQEQYYSEKYQKREHIKLLIQKLTDVAEECQNNQLKKLKEICEKEKKELKKKMDKKRQEKITEAKSKDKSQMEEEKTEMIRSYIQEVVQYIKRLEEAQSKRQEKLVEKHKEIRQQILDEKPKLQVELEQEYQDKFKRLPLEILEFVQEAMKGKISEDSNHGSAPLSLSSDPGKVNHKTPSSEELGGDIPGKEFDTPL
Turning to B1, the binding result was “binds”.

The record behind these values is publication PMC11527234.
